From patent US7098310B1, “Heterodimers of retinoid X receptors (RXRS) and other steroid hormone receptors” (Ligand Pharmaceuticals, priority 1991, dated 2006)

The chains behind the UniProt entries cited, without tags or fusion partners. Where a name states a change or a piece, a line headed by the entry shows the natural chain unless it says otherwise.
UniProt P63059: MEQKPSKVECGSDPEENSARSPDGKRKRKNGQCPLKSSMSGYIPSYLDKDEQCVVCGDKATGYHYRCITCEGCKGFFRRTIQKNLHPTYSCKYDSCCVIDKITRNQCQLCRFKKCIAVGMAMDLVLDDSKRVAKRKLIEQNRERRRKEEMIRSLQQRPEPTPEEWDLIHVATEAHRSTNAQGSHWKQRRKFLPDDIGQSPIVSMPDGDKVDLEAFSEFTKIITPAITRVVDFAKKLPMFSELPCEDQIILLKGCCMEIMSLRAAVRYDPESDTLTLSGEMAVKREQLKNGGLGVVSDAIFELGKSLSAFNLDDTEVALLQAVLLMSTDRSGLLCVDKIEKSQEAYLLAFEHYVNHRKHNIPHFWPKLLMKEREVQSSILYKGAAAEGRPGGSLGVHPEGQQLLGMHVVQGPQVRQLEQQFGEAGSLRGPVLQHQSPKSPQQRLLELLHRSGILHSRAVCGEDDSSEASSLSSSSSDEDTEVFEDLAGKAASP
UniProt P03372: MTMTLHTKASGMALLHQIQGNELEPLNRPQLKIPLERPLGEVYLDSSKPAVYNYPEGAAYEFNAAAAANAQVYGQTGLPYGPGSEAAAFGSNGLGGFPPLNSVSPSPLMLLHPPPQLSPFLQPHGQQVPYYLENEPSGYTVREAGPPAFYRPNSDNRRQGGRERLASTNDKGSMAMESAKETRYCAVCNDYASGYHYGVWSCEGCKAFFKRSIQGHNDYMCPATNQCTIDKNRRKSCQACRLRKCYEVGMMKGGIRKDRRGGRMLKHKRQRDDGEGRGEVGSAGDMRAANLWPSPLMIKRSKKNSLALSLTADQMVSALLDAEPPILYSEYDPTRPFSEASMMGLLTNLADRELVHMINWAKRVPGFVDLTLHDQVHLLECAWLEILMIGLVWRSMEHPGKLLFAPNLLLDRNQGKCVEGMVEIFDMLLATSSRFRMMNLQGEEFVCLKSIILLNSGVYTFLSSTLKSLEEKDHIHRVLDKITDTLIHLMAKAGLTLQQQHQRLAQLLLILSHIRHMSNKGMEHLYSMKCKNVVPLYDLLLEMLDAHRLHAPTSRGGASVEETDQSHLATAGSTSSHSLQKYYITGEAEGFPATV
UniProt P10276: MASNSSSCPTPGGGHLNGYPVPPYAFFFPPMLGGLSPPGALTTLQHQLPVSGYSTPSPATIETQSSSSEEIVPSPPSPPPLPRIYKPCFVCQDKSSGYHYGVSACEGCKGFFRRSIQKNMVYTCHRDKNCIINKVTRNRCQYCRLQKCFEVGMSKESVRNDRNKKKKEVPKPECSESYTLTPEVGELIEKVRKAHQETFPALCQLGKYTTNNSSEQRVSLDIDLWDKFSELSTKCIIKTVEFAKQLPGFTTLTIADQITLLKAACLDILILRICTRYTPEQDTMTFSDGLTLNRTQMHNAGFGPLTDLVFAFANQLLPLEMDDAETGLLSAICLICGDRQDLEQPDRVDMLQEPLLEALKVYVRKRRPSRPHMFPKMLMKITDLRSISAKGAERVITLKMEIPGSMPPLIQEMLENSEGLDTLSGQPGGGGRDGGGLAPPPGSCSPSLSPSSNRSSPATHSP

How the values were obtained:
[1] = molecular target: thyroid hormone receptor TRα (UniProt P63059); experiment: gel retardation, 32P palindromic TRE
[2] = molecular target: thyroid hormone receptor TRα (UniProt P63059); experiment: gel retardation with different 32P response elements
[3] = molecular target: thyroid hormone receptor TRα (UniProt P63059); experiment: gel retardation, 32P palindromic TRE, with or without T3 (10^-7 M)
FLAG-TRα = FLAG-TRα (UniProt P63059); experiment: gel retardation, 32P palindromic TRE, in vitro translated receptors
[4] = molecular target: thyroid hormone receptor TRα (UniProt P63059); experiment: as above

| Molecule | binding [1] | binding [2] | binding [3] | binding (FLAG-TRα) | binding [4] |
| --- | --- | --- | --- | --- | --- |
| retinoid x receptor (RXRα) (from UniProt P19793 1-462) | binds | binds | binds | binds | binds |
| estrogen receptor (ER) (from UniProt P03372 1-595) | – | – | – | – | no binding |
| retinoic acid receptor RARα (from UniProt P10276 1-462) | – | – | – | – | no binding |
| FLAG-RXRα (from UniProt P19793 1-462) (receptor) | – | – | – | – | binds |
| RXRαm3 (receptor, human, UniProt P19793 28-462, looked up, range 28-C-terminus) MAAPSLHPSLGPGIGSPGQLHSPISTLSSPINGMGPPFSVISSPMGPHSMSVPTTPTLGFSTGSPQLSSPMNPVSSSEDIKPPLGLNGVLKVPAHPSGNMASFTKHICAICGDRSSGKHYGVYSCEGCKGFFKRTVRKDLTYTCRDNKDCLIDKRQRNRCQYCRYQKCLAMGMKREAVQEERQRGKDRNENEVESTSSANEDMPVERILEAELAVEPKTETYVEANMGLNPSSPNDPVTNICQAADKQLFTLVEWAKRIPHFSELPLDDQVILLRAGWNELLIASFSHRSIAVKDGILLATGLHVHRNSAHSAGVGAIFDRVLTELVSKMRDMQMDKTELGCLRAIVLFNPDSKGLSNPAEVEALREKVYASLEAYCKHKYPEQPGRFAKLLLRLPALRSIGLKCLEHLFFFKLIGDTPIDTFLMEMLEAPHQMT | binds | – | – | – | binds |
| RXRαm4 (receptor, human, UniProt P19793 61-462, looked up, range 61-462; 35S-labelled in the column experiment; also called mutant RXRαm4) MGPPFSVISSPMGPHSMSVPTTPTLGFSTGSPQLSSPMNPVSSSEDIKPPLGLNGVLKVPAHPSGNMASFTKHICAICGDRSSGKHYGVYSCEGCKGFFKRTVRKDLTYTCRDNKDCLIDKRQRNRCQYCRYQKCLAMGMKREAVQEERQRGKDRNENEVESTSSANEDMPVERILEAELAVEPKTETYVEANMGLNPSSPNDPVTNICQAADKQLFTLVEWAKRIPHFSELPLDDQVILLRAGWNELLIASFSHRSIAVKDGILLATGLHVHRNSAHSAGVGAIFDRVLTELVSKMRDMQMDKTELGCLRAIVLFNPDSKGLSNPAEVEALREKVYASLEAYCKHKYPEQPGRFAKLLLRLPALRSIGLKCLEHLFFFKLIGDTPIDTFLMEMLEAPHQMT | binds | – | – | – | binds |
| RXRαm5 (receptor, human, UniProt P19793 198-462, looked up) MGMKREAVQEERQRGKDRNENEVESTSSANEDMPVERILEAELAVEPKTETYVEANMGLNPSSPNDPVTNICQAADKQLFTLVEWAKRIPHFSELPLDDQVILLRAGWNELLIASFSHRSIAVKDGILLATGLHVHRNSAHSAGVGAIFDRVLTELVSKMRDMQMDKTELGCLRAIVLFNPDSKGLSNPAEVEALREKVYASLEAYCKHKYPEQPGRFAKLLLRLPALRSIGLKCLEHLFFFKLIGDTPIDTFLMEMLEAPHQMT | – | – | – | – | no binding |
| RXRαm6 (receptor, human, UniProt P19793 1-462, looked up, In vitro translated deletion mutant) MDTKHFLPLDFSTQVNSSLTSPTGRGSMGMKREAVQEERQRGKDRNENEVESTSSANEDMPVERILEAELAVEPKTETYVEANMGLNPSSPNDPVTNICQAADKQLFTLVEWAKRIPHFSELPLDDQVILLRAGWNELLIASFSHRSIAVKDGILLATGLHVHRNSAHSAGVGAIFDRVLTELVSKMRDMQMDKTELGCLRAIVLFNPDSKGLSNPAEVEALREKVYASLEAYCKHKYPEQPGRFAKLLLRLPALRSIGLKCLEHLFFFKLIGDTPIDTFLMEMLEAPHQMT | – | – | – | – | no binding |

No constants are given. Whether binding was seen depends on the method and setting. Binding can be weak; no strength is given.
